Test results reported in PubChem BioAssay AID504444 (National Center for Advancing Translational Sciences (NCATS), 2011).
Screen size: about 360,000 compounds; about 7,500 (2.1%) were called active. Inconclusive results, whose numbers are uncertain, are shown with a selection of clear calls. The call rests on the fitted dose curve; in most records, active means well fitted inhibition curve with a large enough effect; inconclusive means small, poorly fitted or top-dose-only effect, or effect the other way; inactive means flat fitted curve, though single readings scatter. Potencies beside an inconclusive call are fits to weak or partial responses and may not hold up. Some compounds were tested as several samples or in several runs, with calls that do not always agree.

Assay: Nrf2 qHTS screen for inhibitors; further: nearly all actives have a fitted effect of over 60% in size
Conditions: A549 ARE-Fluc reporter, luciferase luminescence, 18-24 h; activity change, negative = inhibition: at 46 µM (top of the series)
In short: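 Quantitative HTS in A549 cells stably bearing an antioxidant response element-firefly luciferase construct. Inhibition of Nrf2-driven transcription was scored by luminescence after 18-24 h of compound exposure at 37 °C.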
On the % scale 0 is the no-effect control and ±100 the full control effect; potency means the concentration at half of the fitted maximal effect.

Row | Compound | activity change, negative = inhibition | Potency
1 | COc1ccc(OCC(=O)N2CCN(C(=O)c3ccc(OC)c(OC)c3)CC2)cc1 | inactive: 16.2% | –
2 | Cc1cc(Cl)ccc1OCC(=O)NCc1ccncc1 | inactive: 12.4% | –
3 | C/C(=N\Nc1nc(C(=O)O)cs1)c1ccccc1 | – | inconclusive: 8.2 µM [activator, partial curve]
4 | CCCCN(Cc1ccco1)C(=O)c1cc2c(=O)[nH]c3ccc(C)cc3c2s1 | – | inconclusive: 1.64 µM [falling, partial curve, poor fit]
5 | Cc1ccc(OCc2nnc(SC3CCc4ccccc4C3=O)n2C)cc1 (configuration not stated) | – | inconclusive: 32.6 µM [falling, single point]
6 | CCOc1cc(/C=N/Nc2nn3cnnc3c3ccccc23)ccc1O | – | inconclusive: 32.6 µM [falling, single point]
7 | COc1ccccc1CN1CCC(CNC(=O)c2cnn(-c3cccc(Cl)c3)c2C2CCN(C(=O)OC(C)(C)C)CC2)CC1 | – | inconclusive: 10.3 µM [falling, partial curve, poor fit]
8 | O=C(Cn1c2[n+](c3ccccc31)CC(O)CS2)c1ccccc1 (configuration not stated) | inactive: -13.8% | –
9 | Clc1ccccc1-c1nc2ccccc2[nH]1 | – | inconclusive: 4.61 µM [activator, full curve, poor fit]
10 | COc1ccc(COC(=O)N/C=C/c2ccco2)cc1 | – | inconclusive: 4.11 µM [activator, partial curve, poor fit]
11 | c1ccc(-c2cc(-c3ccccc3)ncn2)cc1 | – | inconclusive: 29.1 µM [activator, partial curve, poor fit]
12 | CC(=O)c1ccc(NC(=O)c2cc(C)nc3ccccc23)cc1 | – | inconclusive: 16.4 µM [activator, partial curve]
13 | CC(=O)c1ccc(NC(=S)NC(C)CCc2ccccc2)cc1 (configuration not stated) | inactive: -2.61% | –
14 | CCCN(C(=O)c1ccc2c(=O)n3c(nc2c1)CCCCC3)c1cccc(Cl)c1 | – | inconclusive: 32.6 µM [falling, single point]
15 | COC(=O)c1[nH]c2ccc(C)cc2c1NC(=O)CN1CCCC(C)(C)C1 | – | inconclusive: 20.6 µM [falling, partial curve, poor fit]
16 | COc1cccc(S(=O)(=O)N2CCN(c3ccccc3F)CC2)c1 | – | inconclusive: 29.1 µM [falling, single point]
17 | O=C1CCCc2[nH]c(-c3ccccc3)nc21 | – | inconclusive: 29.1 µM [activator, single point]
18 | Cc1ccc(C(=O)COC(=O)c2cccc(O)c2)s1 | – | inconclusive: 13 µM [falling, partial curve]
19 | Cc1ccc(OC(=O)CCC(=O)Nc2ccc(S(=O)(=O)Nc3cc(C)on3)cc2)cc1 | – | inconclusive: 1.84 µM [falling, full curve]
20 | CC(C)c1ccc(NC(=O)C2=NNC(=O)CC2)cc1 | – | inconclusive: 0.651 µM [activator, full curve, poor fit]
21 | COc1ccccc1C(=O)N1CCCC1(C#N)c1ccccc1 (configuration not stated) | – | inconclusive: 4.11 µM [activator, full curve]
22 | CN1CCN(c2nc3c(c(=O)n(C)c(=O)n3C)n2Cc2cccc3ccccc23)CC1 | inactive: 1.25% | –
23 | CCCCC(=O)Nc1nnc(/C=C/c2ccc(OC)cc2)s1 | – | inconclusive: 14.6 µM [falling, partial curve, poor fit]

Taken from the results shown, 2 compounds:
Row | Compound | activity change, negative = inhibition | Potency
5 | Cc1ccc(OCc2nnc(SC3CCc4ccccc4C3=O)n2C)cc1 (configuration not stated) | – | inconclusive: 32.6 µM [falling, single point]
6 | CCOc1cc(/C=N/Nc2nn3cnnc3c3ccccc23)ccc1O | – | inconclusive: 32.6 µM [falling, single point]

Further results

Row | Compound | activity change, negative = inhibition | Potency
24 | COc1ccc(N(C(=O)c2snc(C(N)=O)c2N)C(C(=O)NC2CCCC2)c2cc(OC)ccc2OC)c(OC)c1 (configuration not stated) | – | inconclusive: 4.11 µM [activator, full curve, poor fit]
25 | CC(C)(C)c1ccc(OCCn2nc(C(=O)O)c3ccccc3c2=O)cc1 | – | inconclusive: 9.2 µM [activator, partial curve]
26 | Cc1oc(-c2ccccc2F)nc1CS(=O)(=O)CC(=O)NCCCc1ccccc1 | inactive: -13.7% | –
27 | CCOC(=O)c1cc2c(=O)n3ccccc3nc2n(CCOC)c1=NC(=O)c1c(-c2c(F)cccc2Cl)noc1C | – | active: 6.51 µM
28 | Cc1ccc(C)c(NC(=O)c2ccc(N(C)S(C)(=O)=O)cc2)c1 | – | inconclusive: 9.2 µM [activator, partial curve]
29 | Cc1nc(SCC(=O)Nc2cc(S(=O)(=O)N3CCOCC3)ccc2Cl)nc(C)c1C | – | inconclusive: 4.11 µM [falling, full curve, poor fit]
30 | Cc1nc2ccccc2cc1C(=O)N/N=C/c1ccccc1[N+](=O)[O-] | – | inconclusive: 32.6 µM [falling, partial curve, poor fit]
31 | Cc1cccc(NC(=O)c2onc3c2CCCC3)c1C | – | inconclusive: 3.26 µM [activator, partial curve]
32 | CN(C)C(=O)c1ccc(N=Nc2c(O)c3ccccc3[nH]c2=O)cc1 | inactive: 0.114% | –
33 | CC(=O)OCC(=O)C1(O)CCC2C3CC(C)C4=CC(=O)C=CC4(C)C3(F)C(O)CC21C (configuration not stated) | – | active: 0.058 µM
34 | Oc1ccc(/C=N/Nc2ccc(C(F)(F)F)cn2)cc1O | – | inconclusive: 14.6 µM [activator, partial curve, poor fit]
35 | O=C(CN1CCCC1)N1CCCc2c1c(=O)oc1ccc(OCc3ccccc3)cc21 | inactive: 3.13% | –
36 | CN(CC1CCCN(CCc2cccc(C(F)(F)F)c2)C1)C(=O)c1cc2ccccc2o1 (configuration not stated) | – | inconclusive: 23.1 µM [falling, partial curve, poor fit]
37 | CCN(CC)c1ccc(/C=N/Nc2cccc(C)c2)c(O)c1 | inactive: 9.63% | –
38 | Cc1cccc(NC(=O)CN2C(=O)C(c3ccc(F)cc3)=NC23CCCCCC3)c1C | – | active: 23.1 µM
39 | Cc1c(C(=O)NCCC2=CCCCC2)oc2ccc(S(=O)(=O)N3CCOCC3)cc12 | – | inconclusive: 16.4 µM [falling, single point]
40 | Cc1ccc(NC(=O)c2ccc(S(=O)(=O)N(C)c3ccccc3)cc2)cc1S(=O)(=O)N1CCOCC1 | – | inconclusive: 5.8 µM [falling, full curve]
41 | CCc1ccccc1NC(=S)N=Nc1c(O)n(C)c2ccc(S(=O)(=O)N3CCOCC3)cc12 | – | inconclusive: 4.11 µM [falling, full curve]
42 | CCn1c(Cc2ccc(OC)cc2)nnc1SCC(=O)N1CCN(c2ccccc2)CC1 | – | inconclusive: 14.6 µM [falling, partial curve, poor fit]
43 | CCCSc1ccc2nc(-c3ccccc3)cn2c1 | – | inconclusive: 29.1 µM [falling, single point]
44 | CC(C)Oc1ccc(S(=O)(=O)N2CCCCC2)cc1NC(=O)CN1CCCC1c1cccs1 (configuration not stated) | – | inconclusive: 29.1 µM [falling, single point]
45 | O=C(CCS(=O)(=O)c1cccs1)Nc1ccc(C(=O)NCc2ccc(F)cc2)cc1 | inactive: -15.1% | –
46 | COc1ccc(CN2C(=O)c3ccccc3NC2c2ccc(OC)c(COc3ccc(NC(C)=O)cc3)c2)cc1 (configuration not stated) | inactive: -17.5% | –

Row | Compound | activity change, negative = inhibition | Potency
47 | CC(C)(C)C1CCc2c(sc3nc(-c4cc5cc(Cl)ccc5oc4=O)[nH]c(=O)c23)C1 (configuration not stated) | inactive: 26.6% | –
48 | CN1C(=O)/C(=C/c2ccccc2F)Sc2ccc(C(=O)N3CCCC3)cc21 | – | inconclusive: 29.1 µM [falling, single point]
49 | c1coc(-c2nnc(-c3cccs3)o2)c1 | – | inconclusive: 20.6 µM [activator, partial curve]
50 | CC1C=CCC2C(=O)N(c3cccc(C(=O)N4CCCCCC4)c3)C(=O)C12 (configuration not stated) | inactive: 10.5% | –
51 | COC(=O)c1c(NC(=O)C2COc3ccccc3O2)sc2c1CCN(C(C)=O)C2 (configuration not stated) | – | active: 20.6 µM
52 | O=C1COc2ccc(-c3csc(NCC4CCCO4)n3)cc2N1 (configuration not stated) | – | inconclusive: 3.26 µM [activator, partial curve, poor fit]
53 | Cc1ccc(S(=O)(=O)NCCc2nnc3ccc(SCC(=O)Nc4c(C)cc(C)cc4C)nn23)cc1 | inactive: 5.76% | –
54 | CC1CCN(C(=O)CSc2nnc3ccc(-c4cccnc4)nn23)CC1 | – | inconclusive: 5.8 µM [falling, partial curve, poor fit]
55 | Cc1onc(-c2ccccc2)c1C(=O)N/N=C/c1ccc([N+](=O)[O-])s1 | – | inconclusive: 20.6 µM [falling, single point]
56 | O=C(C1CCCN(c2ncnc3c2nc2n3CCCCC2)C1)N1CCN(c2ccc(F)cc2)CC1 (configuration not stated) | – | inconclusive: 2.59 µM [activator, partial curve, poor fit]
57 | O=C(c1cccnc1)N1CCc2ccccc21 | – | inconclusive: 14.6 µM [activator, partial curve, poor fit]
58 | COc1ccc2ccccc2c1CNCCCN1CCOCC1 | – | inconclusive: 6.51 µM [falling, partial curve, poor fit]
59 | COc1cccc(C(=O)Nc2nnc(C(C)C)s2)c1 | – | inconclusive: 0.291 µM [activator, full curve, poor fit]
60 | Cc1ccc(-c2csc(NS(=O)(=O)c3cccc(F)c3)n2)o1 | inactive: -4.1% | –
61 | COc1cc(C(=O)NC(=S)NNC(=O)c2cnccn2)cc(OC)c1OC | – | active: 4.61 µM
62 | CN(C)c1ccc(C(=S)N2CCCCC2)cc1 | – | inconclusive: 5.8 µM [activator, full curve, poor fit]
63 | CO/N=C/NC(=O)N1OC[C@@H]2COc3ccc4ccccc4c3[C@@H]21 | inactive: -8.88% | –
64 | O=C(NCc1ccc(F)cc1)C1CCCN(C(=O)Nc2ccc(F)cc2)C1 (configuration not stated) | – | inconclusive: 29.1 µM [falling, single point]
65 | Cc1cccc(N2CCN(C(=O)CCCn3c(=S)[nH]c4cc5c(cc4c3=O)OCO5)CC2)c1C | – | inconclusive: 23.1 µM [falling, partial curve, poor fit]
66 | COc1ccc2cc3cc(C(=O)NCc4ccco4)oc3nc2c1 | – | active: 5.17 µM
67 | CC(C)(C)NC(=O)c1cc(-c2ccc3c(c2)OCO3)nc2ccccc12 | – | inconclusive: 23.1 µM [activator, single point]

Single records, from the list above.
`CC(C)(C)NC(=O)c1cc(-c2ccc3c(c2)OCO3)nc2ccccc12` is entered as Potency: inconclusive: 23.1 µM [activator, single point]
`CC1C=CCC2C(=O)N(c3cccc(C(=O)N4CCCCCC4)c3)C(=O)C12` (configuration not stated) is entered as activity change, negative = inhibition: inactive: 10.5%
`CN(C)c1ccc(C(=S)N2CCCCC2)cc1` is entered as Potency: inconclusive: 5.8 µM [activator, full curve, poor fit]
